Among the data in patent US20210171654A1 are binding values, retold here.

These are yes or no findings as the source states them, for the method shown. Binding calls can cover weak binding; strength is not graded here.

Test [1] has as its target human SIRPB-His fusion protein (human). Briefly: ELISA on SIRPB-His fusion protein. (In general: ELISA stands for enzyme-linked immunosorbent assay.)
For test [2] the target is unchanged. The test is described as follows: ELISA, binding to human SIRPB-His fusion protein.

B1: 3C2 (parental mouse anti-human SIRPa monoclonal antibody) (antibody, V domains shown)
VH: QVQLQQPGAELVRPGSSVKLSCKASGYTFTSYWMHWVKQRPIQGLEWIGNIDPSDSDTHYNQKFKDKATLTVDKSSSTAYMQLSSLTSEDSAVYYCARGYSKYYAMDYWGQGTSVTVSS
VL: DVLMTQTPLSLSVSLGDQASISCRSSQSIVHSYGNTYLEWYLQKPGQSPKLLIYKVSNRFSGVPDRFSGSGSGTDFTLKISRVEAEDLGVYYCFQGSHVPYTFGGGTKLEIK
Take B1: the binding entry in test [1] and in test [2] was “binds” each time.

B2: 1H9 (parental mouse anti-human SIRPa monoclonal antibody) (antibody, V domains shown)
VH: QVQLQQPGAERVKPGASVKMSCKASGYTFTSYWITWVKQRPGQGLEWIGDIYPGSGSTNHIEKFKSKATLTVDTSSNTAYMQLSRLTSEDSAVYYCATGYGSSYGYFDYWGQGTTLTVSS
VL: DIQMTQSPASLSASVGETVTITCRASENIYSYLAWYQQKQGKSPQLLVYTAKTLAEGVPSRFSGSGSGTQFSLKINSLQPEDFGNYYCQHQYGPPFTFGSGTRLVIK
For the molecule B2, the binding entry in test [1] and in test [2] was “binds” each time.
